The record followed here is the RNAGym collection of RNA variant scans (doi:10.1126/science.aae0568).

Variants at the floor of the assay are shown more often than the library holds them.

B1: tRNA (parent)
chain: GUUCCGUUGGCGUAAUGGUAACGCGUCUCCCUCCUAAGGAGAAGACUGCGGGUUCGAGUCCCGUACGGAACG

In this data set the parent is B1. Nature of the data set: yeast fitness relative to wild type (ratio to wild type); higher = fitter; tRNA-Arg(CCU), competitive growth, 37 C, YPD. Put shortly:
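A pool of Saccharomyces cerevisiae strains, each with a tRNA-Arg(CCU) gene variant at the native genomic locus, was competed in YPD at 37°C for 24 hours across six parallel replicates. The variants had been chemically synthesised at a 3% per-site mutation rate over 69 sites, and gene amplicons before and after competition were read by 100-nucleotide paired-end sequencing. Darwinian fitness relative to wild type rested on changes in genotype frequencies. Genotypes required ≥ 100 starting reads, and estimates < 0.5 were set to 0.5.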
With A43U A70U, the yeast fitness was 1.06.

As for C5U A15G G17C, the yeast fitness is at most 0.5.

For the variant C11U C27U C34A G44C C62A, the yeast fitness was at most 0.5.

Turning to A37C A43U A69U, the yeast fitness came to 0.738.

Turning to C27U C55A A69C, the yeast fitness worked out at 0.573.

As to G52A C60A C66G, the yeast fitness was at most 0.5.

For the variant U3G C4U C30U C33G C55U G68U, the yeast fitness was at most 0.5.

For C60U A65C C66G, the yeast fitness was at most 0.5.

For A37C A43C C55G C60U, the yeast fitness was at most 0.5.

On to C24A C55A, for which the yeast fitness was at most 0.5.

As for A21G C24U A42U G52A, the yeast fitness is at most 0.5.

Regarding U3A C27G C31U C33U A42C A70C, the yeast fitness is at most 0.5.

A14U G23A C29G C46A C55G G68A A70C: the yeast fitness was at most 0.5.

C4U G9C G25C C31U A70G: the yeast fitness was at most 0.5.

Consider U7A G9A C24A G63A, for which the yeast fitness was at most 0.5.

Take A36C A37U G50C C66U: the yeast fitness came out at 0.56.

Consider U13G C31G A43U C46G A70U, for which the yeast fitness was at most 0.5.

On to A21G A36G G38C, for which the yeast fitness was at most 0.5.

Regarding U7G C55G G63A G68C, the yeast fitness worked out at 0.525.

With G51A C60G A65U, the yeast fitness was at most 0.5.

Consider C5U G23A C62A, for which the yeast fitness is at most 0.5.

On to U3C C11A C27G C33A A43C C46A C62A C66U, for which the yeast fitness is at most 0.5.

For the variant C11A A14G U16C A43U G58C C61U, the yeast fitness was at most 0.5.

C4G G10A U28G: the yeast fitness was at most 0.5.

For the variant G17A U26C C61U G67A, the yeast fitness is at most 0.5.

For the variant G10A U47A A70G, the yeast fitness is at most 0.5.

For U28C A65G, the yeast fitness was 0.998.

With C4A C24G, the yeast fitness is 0.714.

Regarding U32G A40C, the yeast fitness is 0.692.

Turning to C4G A43U A70U, the yeast fitness worked out at 0.623.

With C22G C61U G63C, the yeast fitness is at most 0.5.

Take U3C C11U G17A: the yeast fitness is at most 0.5.

For U16G A37U C49U G52C G67C A70U, the yeast fitness was at most 0.5.

As to C5A U19G C29A G52A, the yeast fitness was at most 0.5.

Regarding C22G C34A A36U C49U C62U G67A, the yeast fitness was at most 0.5.

Regarding U7C U13A G25A C34G G39C, the yeast fitness was at most 0.5.

With C5U C27U A36G U54A A69U, the yeast fitness was at most 0.5.

Take G17A A20C G25A G56C A65C A70G: the yeast fitness is at most 0.5.

As to U2C C31U U35C A57U, the yeast fitness is at most 0.5.

A45C G51C U64C A69U: the yeast fitness is at most 0.5.

In the case of A57C A69C, the yeast fitness worked out at 0.608.

As to G23C C55U G67A, the yeast fitness is at most 0.5.

For the variant C24U C31A C33A C34U A40U A45U, the yeast fitness is at most 0.5.

As to G6A A40C A45C, the yeast fitness is at most 0.5.

Turning to A20C A40G C62G, the yeast fitness is 0.864.

In the case of C11U C33U A36G G39A G44A C55G U59C, the yeast fitness was at most 0.5.

In the case of U2A C31A A57G, the yeast fitness was 0.555.

As for G17A U28G C30G A40C A42U, the yeast fitness is at most 0.5.

For A15U C31U G67C, the yeast fitness was at most 0.5.

In the case of G17A A36U C46A G52C U59A C61G A69G, the yeast fitness is at most 0.5.

Turning to G25C C29U A70U, the yeast fitness was at most 0.5.

For the variant U7G C29A C34A C62A, the yeast fitness is at most 0.5.

With A20G C34A A36G, the yeast fitness is at most 0.5.

On to C4U C27G U32C C34U, for which the yeast fitness was at most 0.5.

As to U3A C24A A36U A43C, the yeast fitness was at most 0.5.

As to C5U C27G C31U U53C, the yeast fitness was at most 0.5.

For the variant C4U U35C, the yeast fitness was determined as 0.715.

Take C4A C11U C29G A40U: the yeast fitness is at most 0.5.

For the variant A20C C34G, the yeast fitness is 0.527.

Take C30A: the yeast fitness was determined as 0.998.

Turning to G9A C11G C24G U32A G52C, the yeast fitness is at most 0.5.

On to A14C A43U A45G G52C, for which the yeast fitness is at most 0.5.

For the variant U2A C33G A42C C55U G63A, the yeast fitness was at most 0.5.

In the case of C61A C66G, the yeast fitness is 0.572.

With U2G G17A A20G C27G A36C U53A, the yeast fitness is at most 0.5.

Turning to U7A C31A G67A A69C, the yeast fitness was at most 0.5.

As for C22U C33A U64C, the yeast fitness was at most 0.5.

For G39C, the yeast fitness amounted to 0.93.

Regarding A21C G25C U26A U59A A70C, the yeast fitness is at most 0.5.

For the variant U28A C29U A45C G51C A57C, the yeast fitness was at most 0.5.

C30G C31A A36C A40G G50A: the yeast fitness is at most 0.5.

In the case of G12A C34G A37G G38A G50A, the yeast fitness was at most 0.5.

Consider A14C C33G A43G C55U, for which the yeast fitness was at most 0.5.

As for C11U C30U G58C C66A, the yeast fitness is at most 0.5.

Consider U8A U19A C29U A69U, for which the yeast fitness was at most 0.5.

On to C11A C46U U53C A70U, for which the yeast fitness was at most 0.5.

As to U35A A40U C46G U53A, the yeast fitness is at most 0.5.

Consider C4U G23A G56C, for which the yeast fitness is at most 0.5.

Consider U32C C33A A36G, for which the yeast fitness is at most 0.5.

For G12C C34G A36U C62A, the yeast fitness is at most 0.5.

On to U7G C27G U32C A36G U53A G56A, for which the yeast fitness was at most 0.5.

Take C31G A36C C62U G68A A69C: the yeast fitness was at most 0.5.

For C27U U54G C66U, the yeast fitness was at most 0.5.
